Laboratory results from PMC11257983 (2024).
Numbering of substitutions follows the chain as printed. No constants are given. Whether binding was seen depends on the method and setting. Binding seen in cells or lysates may run through a third protein. Some entries that bind do so weakly or less than the wild type. Sequences can lack the tags named with a protein.

Assays:
Pyo-RAF (Drosophila) = molecular target: T1, Pyo-RAF (Drosophila) (UniProt P11346); experiment: co-IP; anti-Pyo immunoprecipitation of Pyo-RAF from S2 total lysates, protein A/G agarose, overnight at 4 °C; KSR blotted; without or with co-expressed MEK and CNK–HYP
T1 sequence: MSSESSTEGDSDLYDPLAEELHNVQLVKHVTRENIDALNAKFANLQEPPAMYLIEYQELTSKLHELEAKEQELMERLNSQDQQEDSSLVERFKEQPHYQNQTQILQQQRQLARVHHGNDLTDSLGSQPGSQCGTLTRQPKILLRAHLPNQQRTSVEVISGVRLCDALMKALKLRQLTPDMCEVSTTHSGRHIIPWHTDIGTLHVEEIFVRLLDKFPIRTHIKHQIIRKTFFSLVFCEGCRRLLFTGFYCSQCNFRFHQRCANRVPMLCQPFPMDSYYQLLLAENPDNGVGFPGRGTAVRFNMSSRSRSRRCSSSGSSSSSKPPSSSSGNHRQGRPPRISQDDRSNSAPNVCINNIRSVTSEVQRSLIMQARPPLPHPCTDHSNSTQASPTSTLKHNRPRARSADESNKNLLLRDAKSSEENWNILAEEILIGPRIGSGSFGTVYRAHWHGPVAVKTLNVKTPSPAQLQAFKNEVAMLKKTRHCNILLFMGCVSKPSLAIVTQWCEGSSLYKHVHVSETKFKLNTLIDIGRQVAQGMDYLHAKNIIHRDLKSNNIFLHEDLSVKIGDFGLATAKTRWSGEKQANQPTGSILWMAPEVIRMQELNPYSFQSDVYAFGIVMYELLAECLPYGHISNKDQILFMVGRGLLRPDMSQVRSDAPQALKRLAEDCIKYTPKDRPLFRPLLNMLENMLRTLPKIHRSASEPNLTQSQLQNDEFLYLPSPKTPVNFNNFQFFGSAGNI

[1] = molecular target: T2, Flag-CNK^2–549 (Drosophila) (UniProt Q7KNQ9); experiment: pull-down; GST-HYP as bait, CNK, KSR and MEK variants co-expressed in S2 cells (Fig. 2c,d; Extended Data Fig. 7e); total lysates, overnight at 4 °C; immunoblot
T2 sequence: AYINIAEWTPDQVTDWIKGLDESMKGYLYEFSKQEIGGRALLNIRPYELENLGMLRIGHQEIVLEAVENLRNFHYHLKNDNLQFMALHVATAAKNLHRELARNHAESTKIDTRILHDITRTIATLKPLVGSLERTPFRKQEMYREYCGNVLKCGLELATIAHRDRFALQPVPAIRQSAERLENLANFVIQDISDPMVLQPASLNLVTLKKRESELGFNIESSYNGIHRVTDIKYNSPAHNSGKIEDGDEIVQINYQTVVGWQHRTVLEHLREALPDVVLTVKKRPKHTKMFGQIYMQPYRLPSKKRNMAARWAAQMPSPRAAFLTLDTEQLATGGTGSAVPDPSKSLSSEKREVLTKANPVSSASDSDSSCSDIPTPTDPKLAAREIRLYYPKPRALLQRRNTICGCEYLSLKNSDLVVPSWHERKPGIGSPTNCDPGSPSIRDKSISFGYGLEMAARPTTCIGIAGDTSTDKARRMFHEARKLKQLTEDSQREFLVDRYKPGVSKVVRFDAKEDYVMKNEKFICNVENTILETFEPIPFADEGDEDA

[2] = molecular target: T3, Flag-CNK^2–549 Q200A (Drosophila) (UniProt Q7KNQ9); experiment: as above
T3 sequence: T2 sequence with Q199A

[3] = molecular target: T4, GST-CNK^2–384 (Drosophila) (UniProt Q7KNQ9); experiment: pull-down; GST-CNK fragments as bait; S2 cells co-transfected with Pyo-HYP, V5-KSR and Myc-MEK alone, in pairs or all three; total lysates in Triton lysis buffer (50 mM Tris pH 7.5, 150 mM NaCl, 0.2% Triton X-100), overnight at 4 °C; immunoblot
T4 sequence: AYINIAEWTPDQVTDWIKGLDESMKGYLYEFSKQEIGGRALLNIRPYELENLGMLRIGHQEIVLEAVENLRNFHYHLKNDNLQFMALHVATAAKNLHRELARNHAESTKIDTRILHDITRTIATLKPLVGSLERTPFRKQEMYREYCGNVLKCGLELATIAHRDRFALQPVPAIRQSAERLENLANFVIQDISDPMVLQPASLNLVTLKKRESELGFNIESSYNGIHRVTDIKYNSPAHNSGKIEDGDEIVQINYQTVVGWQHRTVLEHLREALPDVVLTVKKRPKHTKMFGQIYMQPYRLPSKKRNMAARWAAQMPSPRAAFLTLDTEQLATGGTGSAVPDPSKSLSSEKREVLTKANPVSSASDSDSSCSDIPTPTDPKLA

[4] = molecular target: T5, GST-CNK^2–549 (Drosophila) (UniProt Q7KNQ9); experiment: as above
T5 sequence: T2 sequence

[5] = molecular target: T2, Flag-CNK^2–549 (Drosophila); experiment: pull-down; GST-HYP as bait, CNK^2–549 co-expressed in S2 cells with Ha-RAS^V12, Pyo-RAF, V5-KSR and Myc-MEK (RRKM); total lysates, overnight at 4 °C; immunoblot

binding (Pyo-RAF (Drosophila)): binds weakly
binding [1]: binds
binding [2]: binds
binding [3]: binds
binding [4]: binds
binding [5]: binds
B1: V5-KSR (protein, UniProt Q24171 1-966)
chain: MSSNNNAPASAPDTGSTNANDPISGSLSVDSNLVIIQDMIDLSANHLEGLRTQCAISSTLTQQEIRCLESKLVRYFSELLLAKMRLNERIPANGLVPHTTGNELRQWLRVVGLSQGTLTACLARLTTLEQSLRLSDEEIRQLLADSPSQREEEELRRLTRAMQNLRKCMESLESGTAASNNDPEQWHWDSWDRPTHIHRGSVGNIGLGNNSTASPRTHHRQHGVKGKNSALANSTNFKSGRQSPSATEELNSTQGSQLTLTLTPSPPNSPFTPSSGLSSSLNGTPQRSRGTPPPARKHQTLLSQSHVQVDGEQLARNRLPTDPSPDSHSSTSSDIFVDPNTNASSGGSSSNVLMVPCSPGVGHVGMGHAIKHRFTKALGFMATCTLCQKQVFHRWMKCTDCKYICHKSCAPHVPPSCGLPREYVDEFRHIKEQGGYASLPHVHGAAKGSPLVKKSTLGKPLHQQHGDSSSPSSSCTSSTPSSPALFQQRERELDQAGSSSSANLLPTPSLGKHQPSQFNFPNVTVTSSGGSGGVSLISNEPVPEQFPTAPATANGGLDSLVSSSNGHMSSLIGSQTSNASTAATLTGSLVNSTTTTSTCSFFPRKLSTAGVDKRTPFTSEYTDTHKSNDSDKTVSLSGSASTDSDRTPVRVDSTEDGDSGQWRQNSISLKEWDIPYGDLLLLERIGQGRFGTVHRALWHGDVAVKLLNEDYLQDEHMLETFRSEVANFKNTRHENLVLFMGACMNPPYLAIVTSLCKGNTLYTYIHQRREKFAMNRTLLIAQQIAQGMGYLHAREIIHKDLRTKNIFIENGKVIITDFGLFSSTKLLYCDMGLGVPHNWLCYLAPELIRALQPEKPRGECLEFTPYSDVYSFGTVWYELICGEFTFKDQPAESIIWQVGRGMKQSLANLQSGRDVKDLLMLCWTYEKEHRPQFARLLSLLEHLPKKRLARSPSHPVNLSRSAESVF
